# In US20230257452A1:
# Protein sequences, listed by entry. Tags and fused reporters are not part of them. Lines headed by an entry give the natural chain unless they say otherwise; changes in a name come on top.
# UniProt P10636: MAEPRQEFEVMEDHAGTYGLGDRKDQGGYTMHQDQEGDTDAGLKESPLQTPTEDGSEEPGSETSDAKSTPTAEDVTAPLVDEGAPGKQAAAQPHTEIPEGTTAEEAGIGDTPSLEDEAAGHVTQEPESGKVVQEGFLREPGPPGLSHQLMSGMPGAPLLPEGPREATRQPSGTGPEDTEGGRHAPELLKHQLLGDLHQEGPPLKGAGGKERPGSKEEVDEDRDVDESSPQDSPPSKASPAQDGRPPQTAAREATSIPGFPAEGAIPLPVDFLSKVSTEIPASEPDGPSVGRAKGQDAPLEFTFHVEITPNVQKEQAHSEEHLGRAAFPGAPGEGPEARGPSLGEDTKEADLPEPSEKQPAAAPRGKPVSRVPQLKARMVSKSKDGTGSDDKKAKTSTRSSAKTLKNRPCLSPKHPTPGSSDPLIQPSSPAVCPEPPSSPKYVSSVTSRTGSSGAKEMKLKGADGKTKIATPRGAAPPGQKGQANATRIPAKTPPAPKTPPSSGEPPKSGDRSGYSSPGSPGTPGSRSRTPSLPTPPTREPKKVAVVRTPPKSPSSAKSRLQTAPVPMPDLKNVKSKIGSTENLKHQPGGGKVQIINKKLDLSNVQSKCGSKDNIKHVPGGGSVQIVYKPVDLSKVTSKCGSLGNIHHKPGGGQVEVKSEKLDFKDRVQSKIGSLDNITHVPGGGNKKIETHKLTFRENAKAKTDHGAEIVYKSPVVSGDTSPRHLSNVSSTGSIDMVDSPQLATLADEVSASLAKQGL
# Positions count from the first letter of the chain named. Results are given in words; binding and its absence hold for the method and conditions named. Some results given as binding are weak or reduced against the parent protein; the word gives no strength.
# B1: S1F4 scAb (scFv, not shown: small tags and cut ends)
# scFv: QVQLQESGPSLVKPSQTLSLTCTVSGFSLSSNSVGWVRQAPGKAPEWVAGIDTDGEEGYNPALNSRLSITRDTSKSQVSLSLSSVTSEDTAVYYCVRSYRADGLAYGYVQAIDYWGPGLLLTISSEGKSSGASGESKVDDQAVVTQPSSVSGSLGQRVSITCSGSFIGISSVGWFQQLPGSGLRTVIVASDGRPSGVPDRFSNSKSGNTATLTISSLQAEDEADYFCGSSDRTQYTGVFGSGTRLTVLG
# B2: S1G2 scAb (scFv, not shown: small tags and cut ends)
# scFv: B1 scFv with S30T, V96G, L121V, I123V, V186I, N203M, Q234P
# B3: CE2 scAb (scFv, not shown: small tags and cut ends)
# scFv: QVQLQESGPSLVKPSQTLSLTCTVSGFSLTNYPVGWVRQAPGKALEWIGNIENDGSANYASALKSRLSITRDTSKNQVSLSLSSATTEDTAVYYCGREFGGSDGYTYFVDIDYWGPGLLVTVSSEGKSSGASGESKVDDQAVLTQPSSVSKSLGQSVSITCSGSSSNVGYGNYVSWFQQVPGSAPKILIYGATSRASGVPDRFSGSRSGNTATLTITSLQAEDEADYYCASYDGSSSGVFGSGTRLTVLG
# B4: CE3 scAb (scFv, not shown: small tags and cut ends)
# scFv: QVRLQESGPSLVKPSQTLSVTCTVSGFSLISNAVGWVRQAPGKVPESLAGCSSDGKCYYNSALKSRLDITRDTSKNQISLSLSSVTTDDAAVYYCTRGYYPVYGYDYLGTIDYWGPGLLVTVSSEGKSSGASGESKVDDQAVLTQPSSVSGSLGQRVSITCSGSSSNVGRNDVAWFQQLPGSGLRTIIYGTTSRPSGIPDRFSGSKSGVTATLTIDSLQAEDEADYFCASGDSSAINDIFGSGTRLTVLG
# B5: S1G2 mAb (antibody, mouse IgG2a, V domains shown)
# VH: QVQLQESGPSLVKPSQTLSLTCTVSGFSLTSNSVGWVRQAPGKAPEWVAGIDTDGEEGYNPALNSRLSITRDTSKSQVSLSLSSVTSEDTAVYYCGRSYRADGLAYGYVQAIDYWGPGLLVTVSS
# VL: QAVVTQPSSVSGSLGQRVSITCSGSFIGISSVGWFQQLPGSGLRTIIVASDGRPSGVPDRFSMSKSGNTATLTISSLQAEDEADYFCGSSDRTPYTGVFGSGTRLTVLG
# B6: S1D12 scAb (scFv, not shown: small tags and cut ends)
# scFv: QVQLQESGPSLVKPSQTLSLTCTVSGFSLNNNAVGWVRQAPGKVPESLVGCSSDGTCYYNSALKSRLDITRDTSKNQISLSLSSVTTDDAAVYYCTRGHYSIYGYDYLGTIDYWGPGLLVTVSSEGKSSGASGESKVDDQAVLTQPSSVSGSLGQRVSITCSGSSSNVGGGNSVGWYQHLPGSGLKTIIYDTNSRPSGVPDRFSGSRSGNTATLTINSLQAEDEGDYYCVTGDSTTHDDLVGSGTRLTVLG
# B7: S1G10 scAb (scFv, not shown: small tags and cut ends)
# scFv: B1 scFv with S30T, V96G, L121V, I123V, V144L, V150M, V186I, N203M
# B8: MD9 scAb (scFv, not shown: small tags and cut ends)
# scFv: QVRLQESGPSLVKSSQTLSLTCTVSGFSLTRESIAWVRQAPGKVPEWLGGVGIDGTSYYSPALKSRLSITRDTSKSQASLSLSSVATEDTAMYYCARNYIDFEYWGPGLLVTVSSEGKSSGASGESKVDDQAVLTQLSSVSGSLGQRISITCSGSSSNVGIYDVSWFQQLPGSGLRTVIYGTNNRPSGVPDRFSGSRSGNTATLTISSLQSEDEAIYYCAAGDSSTIAVFGSGTRLTVLG
# Tests used:
# [1] = biological target: T1, tau 369-391 (human); assay: ELISA
# T1 sequence: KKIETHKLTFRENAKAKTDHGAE
# [2] = biological target: T2, tau 369-390 (human); assay: ELISA
# T2 sequence: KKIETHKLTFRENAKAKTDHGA
# [3] = biological target: T1, tau 369-391 (human); assay: ELISA, antigen coated, scAb titrated; panel title 369-391
# [4] = biological target: T2, tau 369-390 (human); assay: ELISA, antigen coated, scAb titrated; panel title 369-390
# [5] = biological target: tau 266-359 (R1-3) (human) (UniProt P10636); assay: ELISA
# [6] = biological target: tau 266-359 (R1-3) (human) (UniProt P10636); assay: ELISA, antigen coated, scAb titrated
# [7] = biological target: Line 1 human tau fragment 296-390 (human) (UniProt P10636); assay: Western blot
# [8] = biological target: Line 1 human tau fragment 296-390 (human) (UniProt P10636); assay: Western blot of mouse brain homogenate (20 ug protein per lane, per the legend), probed with S1G2
Binder,binding [1],binding [2],binding [4],binding [5],binding [6],further results
B1,binds,binds,binds,,,binding [3]: binds
B2,binds,binds,binds,,,binding [3]: binds
B3,,,,binds,binds,
B4,,,,binds,binds,
B5,,,,,,binding [7]: binds; binding [8]: binds
B6,,,,binds,binds,
B7,binds,binds,binds,,,
B8,binds,binds,,,,
